In publication PMC7862700 one finds binding signal data, which are given here for 40 sequences.

The entries are a selection whose mix differs from that of the whole data set. At the low end of the ranking the order means little.

For this test, the target named is SPI1 (UniProt P17947). Briefly: DAPPL (digital affinity profiling via proximity ligation, sequencing). The conditions noted are these: 10 mM Tris-HCl pH 7.5, 50 mM NaCl, 1 mM DTT, 4% glycerol, room temperature, 30 min; GST-TFs on glutathione beads, 16-mer random dsDNA library, 0.1% …; high values mean tight binding; double strand, one strand shown; scale: fold enrichment (6-mer frequency, TF over GST control).
AGGATC gave a binding signal of 0.887.
Next, CTGAGA: 0.716.
As for CGGTGC, the binding signal is 0.677.
Sequence GAGGAC returned a binding signal of 0.56.
As for GATGTG, the binding signal is 0.958.
For the sequence GAGTCA, the binding signal is 0.252.
Take ACGTGC: the binding signal worked out at 0.752.
Turning to GAGGTG, the binding signal amounted to 0.452.
Take CGCGGA: the binding signal was determined as 0.973.
GCCGAG returned a binding signal of 0.622.
Sequence GTAAGT displayed a binding signal of 0.717.
Sequence GGACTG yielded a binding signal of 0.594.
GAGGTT registered a binding signal of 0.743.
The sequence AGGGCA came in with a binding signal of 0.767.
For the sequence GTCGGG, the binding signal was found to be 0.24.
Regarding AGGAGC, the binding signal stood at 0.38.
In turn, CAAGAC yielded a binding signal of 0.823.
To CGTGGC belongs 0.853; to GGCCAG, 0.444; to AGACAT, 0.836.
To AGACGT belongs 0.437.
Sequence AGTCTA displayed a binding signal of 0.834.
The sequence CGGTGG showed a binding signal of 0.647.
Next, GAGCGT: 0.318.
For GTCCGT, the binding signal amounted to 0.485.
Take CCGTGT: the binding signal came to 0.465.
Sequence GGACTA had a binding signal of 0.767.
On to CCAGCG, for which the binding signal was 0.632.
As to TGTAGG, the binding signal turned out to be 0.735.
For TAGTCG, the binding signal was determined as 0.485.
Consider CGCAGC, for which the binding signal amounted to 0.77.
Next, CCAGTT: 0.693.
On to CCGTGC, for which the binding signal turned out to be 0.592.
Turning to GGGAAC, the binding signal turned out to be 0.869.
AGACCG: the binding signal was found to be 0.489.
GGCGTA displayed a binding signal of 0.656.
Sequence GGGGAT registered a binding signal of 0.666.
Sequence CGCGTG came in with a binding signal of 0.697.
Next, CCGAGT: 0.881; CGTGAA: 0.456.
